In PMC4108065, “Inflammation and pancreatic cancer: molecular and functional interactions between S100A8, S100A9, NT-S100A8 and TGFβ1” (Cell Communication and Signaling : CCS, 2014):
Results are given in words; binding and its absence hold for the method and conditions named. Some entries that bind do so weakly or less than the wild type.

Amino acid sequences for entries named in this document (tags omitted). Residues count along the entry.
UniProt P01137, residues 279-390: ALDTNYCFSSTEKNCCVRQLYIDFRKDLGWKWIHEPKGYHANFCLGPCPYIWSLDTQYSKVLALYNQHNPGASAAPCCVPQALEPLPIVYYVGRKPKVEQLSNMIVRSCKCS

Key:
S100A8 [1] = biological target: T1, S100A8 (UniProt P05109); test: MALDI-TOF/MS of mixtures (linear positive ion mode); proteins and CaCl2 mixed at equimolar concentration (11.3 μM) in aqueous solution, incubated overnight at 37°C, diluted 1/10 in 0.1% TFA, sinapinic acid matrix; both purified
T1 sequence: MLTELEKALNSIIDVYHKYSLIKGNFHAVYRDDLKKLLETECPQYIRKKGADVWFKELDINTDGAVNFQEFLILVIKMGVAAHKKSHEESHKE

S100A9 [2] = biological target: T2, S100A9 (UniProt P06702); test: as above
T2 sequence: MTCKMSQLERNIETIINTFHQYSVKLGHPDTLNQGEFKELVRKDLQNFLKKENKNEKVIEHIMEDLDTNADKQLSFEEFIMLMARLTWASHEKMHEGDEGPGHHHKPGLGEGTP

S100A8 [3] = biological target: T1, S100A8; test: co-IP; TGFβ1 (1.6 μM) incubated equimolar with S100A8 or S100A9 and equimolar CaCl2 at 37°C overnight; precipitated with anti-S100A8 or anti-S100A9 on protein G-Sepharose; washed in 10 mM Tris HCl, 40 mM NaCl, pH 7.5; blot for TGFβ1; both purified
S100A9 [4] = biological target: T2, S100A9; test: as above

Measured: binding

transforming growth factor beta 1 (from UniProt P01137 279-390) (ligand)
binds: S100A8 [1] | S100A9 [2] | S100A8 [3] | S100A9 [4]
